Where a chain is given by its changes, count along the chain named. Names may count otherwise. These are yes or no findings as the source states them, for the method shown. Binding seen in cells or lysates may run through a third protein. A result given as binding can be weak or reduced; the word gives no strength. Sequences can lack the tags named with a protein.
B1: HA-tagged wild-type Drosophila HDAC3 (enzyme, UniProt Q7KTS4 1-438)
chain: MTDRRVSYFYNADVGNFHYGAGHPMKPQRLAVTHSLVMNYGLHKKMKIYRPYKASAQDMLRFHSDEYIAYLQQVTPQNIQCNSVAYTKYLAHFSVGEDCPVFDGLFDFCAMYTGASLEGAQKLNHNHSDICINWSGGLHHAKKFEASGFCYVNDIVIGILELLKYHPRVLYIDIDVHHGDGVQEAFYLTDRVMTASFHKYGNYFFPGTGDMYEIGAESGRYYSVNVPLKEGIDDQSYFQVFKPIISAIMDFYRPTAIVLQCGADSLAGDRLGCFSLSTKGHGECVKFVKELNVPTLVVGGGGYTLRNVARCWTHETSLLVDQDIENDLPATEYYDFFAPDFTLHPEINSRQDNANSKQYLELIVKHVYENLKMCQHSPSVQMVQTPPDVDLEELRSNREEASDPDVRISVADEDKLVDAKNEFYDGDQDQDKPDSAES
B2: HA-tagged Drosophila HDAC3 Y303F mutant (enzyme, UniProt Q7KTS4 1-438)
chain: B1 chain with Y303F
B3: HA-tagged Drosophila HDAC3 K26A mutant (enzyme, UniProt Q7KTS4 1-438)
chain: B1 chain with K26A

Target: V5-tagged SMRTER DAD domain (Drosophila)
Assay: co-IP

Row | Binder | binding
1 | B1 | binds
2 | B2 | binds
3 | B3 | binds

Target: V5-tagged full length SMRTER (Drosophila)
Assay: co-IP

Row | Binder | binding
4 | B1 | binds
5 | B2 | binds
6 | B3 | binds
